Results: paper PMC11687841
Results are given in words; binding and its absence hold for the method and conditions named. Binding seen in cells or lysates may run through a third protein. Some binding calls cover weakened binding; strength is not graded here.

Chains of the proteins cited; added tags and fusions are not shown.
UniProt O43707: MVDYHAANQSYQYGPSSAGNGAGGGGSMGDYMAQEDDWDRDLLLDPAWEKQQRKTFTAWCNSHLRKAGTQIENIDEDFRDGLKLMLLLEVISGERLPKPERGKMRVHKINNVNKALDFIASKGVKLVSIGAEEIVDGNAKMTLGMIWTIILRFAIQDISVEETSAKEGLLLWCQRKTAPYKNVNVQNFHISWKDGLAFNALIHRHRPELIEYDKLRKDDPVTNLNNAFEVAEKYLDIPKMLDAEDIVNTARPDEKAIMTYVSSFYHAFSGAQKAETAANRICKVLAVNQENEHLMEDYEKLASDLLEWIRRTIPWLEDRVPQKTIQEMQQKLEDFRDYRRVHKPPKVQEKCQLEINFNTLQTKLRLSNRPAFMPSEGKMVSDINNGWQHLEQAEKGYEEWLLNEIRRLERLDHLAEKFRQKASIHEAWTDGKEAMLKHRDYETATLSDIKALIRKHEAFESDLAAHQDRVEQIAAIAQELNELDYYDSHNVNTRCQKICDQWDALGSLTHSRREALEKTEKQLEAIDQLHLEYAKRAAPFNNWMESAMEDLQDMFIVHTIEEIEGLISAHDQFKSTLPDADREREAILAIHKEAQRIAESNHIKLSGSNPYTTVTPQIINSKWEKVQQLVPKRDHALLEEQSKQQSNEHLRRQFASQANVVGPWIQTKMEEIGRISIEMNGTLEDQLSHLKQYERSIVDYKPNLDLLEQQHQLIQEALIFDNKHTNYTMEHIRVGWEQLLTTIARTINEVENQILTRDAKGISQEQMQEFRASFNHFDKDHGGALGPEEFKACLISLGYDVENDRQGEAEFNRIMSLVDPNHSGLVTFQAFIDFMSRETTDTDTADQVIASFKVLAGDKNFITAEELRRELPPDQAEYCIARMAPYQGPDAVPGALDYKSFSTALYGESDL
UniProt Q9QXQ0: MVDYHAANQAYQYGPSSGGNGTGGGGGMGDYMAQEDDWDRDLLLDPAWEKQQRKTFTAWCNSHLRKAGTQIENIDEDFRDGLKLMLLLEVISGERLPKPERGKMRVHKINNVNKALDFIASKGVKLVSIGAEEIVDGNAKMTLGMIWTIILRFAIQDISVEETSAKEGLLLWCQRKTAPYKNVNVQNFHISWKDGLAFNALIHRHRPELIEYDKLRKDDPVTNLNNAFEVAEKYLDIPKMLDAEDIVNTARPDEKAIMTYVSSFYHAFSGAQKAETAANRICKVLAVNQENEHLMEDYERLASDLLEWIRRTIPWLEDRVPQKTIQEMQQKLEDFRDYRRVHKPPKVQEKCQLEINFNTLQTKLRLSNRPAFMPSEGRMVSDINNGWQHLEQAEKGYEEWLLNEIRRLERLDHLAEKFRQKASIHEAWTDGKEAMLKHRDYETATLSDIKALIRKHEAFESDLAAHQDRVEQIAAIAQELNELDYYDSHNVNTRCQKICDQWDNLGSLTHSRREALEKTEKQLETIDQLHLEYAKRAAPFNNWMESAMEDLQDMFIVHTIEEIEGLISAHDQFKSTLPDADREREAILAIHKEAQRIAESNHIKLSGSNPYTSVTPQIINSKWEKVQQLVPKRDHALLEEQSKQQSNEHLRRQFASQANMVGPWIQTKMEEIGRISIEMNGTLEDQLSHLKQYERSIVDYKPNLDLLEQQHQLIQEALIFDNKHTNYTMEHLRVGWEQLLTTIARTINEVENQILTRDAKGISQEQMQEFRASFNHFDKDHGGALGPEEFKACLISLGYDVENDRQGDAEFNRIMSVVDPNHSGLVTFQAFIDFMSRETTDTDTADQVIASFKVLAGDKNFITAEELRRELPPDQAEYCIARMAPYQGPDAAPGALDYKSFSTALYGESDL

T1: Na+/K+/2Cl- cotransporter NKCC2 (solute carrier family 12 member 1) (rat (endogenous in medullary TAL)) (UniProt P55016)
T1 sequence: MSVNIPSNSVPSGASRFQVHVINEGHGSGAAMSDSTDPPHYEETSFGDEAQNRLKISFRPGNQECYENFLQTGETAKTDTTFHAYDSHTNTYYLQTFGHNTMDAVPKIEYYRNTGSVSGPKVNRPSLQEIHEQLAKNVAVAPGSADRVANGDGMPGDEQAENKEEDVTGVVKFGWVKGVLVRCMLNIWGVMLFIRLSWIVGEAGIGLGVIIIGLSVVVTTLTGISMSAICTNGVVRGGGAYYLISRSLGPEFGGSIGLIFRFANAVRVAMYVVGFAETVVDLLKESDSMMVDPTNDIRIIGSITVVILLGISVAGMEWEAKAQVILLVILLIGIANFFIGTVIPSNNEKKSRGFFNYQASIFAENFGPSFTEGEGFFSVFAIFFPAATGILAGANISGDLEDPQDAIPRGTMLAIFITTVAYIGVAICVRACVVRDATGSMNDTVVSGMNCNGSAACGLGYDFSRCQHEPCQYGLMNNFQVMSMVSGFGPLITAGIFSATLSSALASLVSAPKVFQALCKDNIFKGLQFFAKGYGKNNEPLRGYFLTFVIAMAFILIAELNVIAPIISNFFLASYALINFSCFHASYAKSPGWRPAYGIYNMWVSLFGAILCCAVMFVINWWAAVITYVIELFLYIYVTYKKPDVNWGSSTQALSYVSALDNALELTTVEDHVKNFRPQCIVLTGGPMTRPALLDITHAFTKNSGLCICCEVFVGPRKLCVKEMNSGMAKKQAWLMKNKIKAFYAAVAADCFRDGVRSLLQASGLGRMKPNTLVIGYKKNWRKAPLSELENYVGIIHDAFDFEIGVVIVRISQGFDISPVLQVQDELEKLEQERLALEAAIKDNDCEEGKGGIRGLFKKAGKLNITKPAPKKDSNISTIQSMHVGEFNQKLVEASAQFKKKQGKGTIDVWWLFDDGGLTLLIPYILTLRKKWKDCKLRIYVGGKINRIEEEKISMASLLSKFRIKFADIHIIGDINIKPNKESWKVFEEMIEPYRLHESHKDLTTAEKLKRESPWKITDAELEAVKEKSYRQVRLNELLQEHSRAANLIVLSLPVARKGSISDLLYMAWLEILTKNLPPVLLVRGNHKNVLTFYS

B1: Na+/K+/2Cl- cotransporter NKCC2 (solute carrier family 12 member 1) (protein, UniProt P55016 1-1095)
chain: T1 sequence

Experiments:
[1] = target: T1, Na+/K+/2Cl- cotransporter NKCC2 (solute carrier family 12 member 1) (rat (endogenous in medullary TAL)); experiment: co-IP; rat medullary TAL lysate (100 µg, precleared with protein A/G agarose) incubated with 2 µg anti-NKCC2 (carboxyl terminus) antibody at 4°C; ACTN4 detected by Western blot
[2] = target: GST-full-length ACTN4 (glutathione-S-transferase-fusion actinin-4) (UniProt O43707); experiment: pull-down; purified GST-ACTN4 (full length) or GST alone on glutathione beads with rat TAL lysate; NKCC2 detected by Western blot; only the target purified

| Molecule | binding [1] | binding [2] |
| --- | --- | --- |
| actinin-4 (ACTN4), endogenous (from UniProt Q9QXQ0 1-911) | binds | – |
| B1 | – | binds |
